## Percent effect of library compounds

Amino acid sequences for entries named in this document (tags omitted). Residues count along the entry.
UniProt P9WPC5, whole entry: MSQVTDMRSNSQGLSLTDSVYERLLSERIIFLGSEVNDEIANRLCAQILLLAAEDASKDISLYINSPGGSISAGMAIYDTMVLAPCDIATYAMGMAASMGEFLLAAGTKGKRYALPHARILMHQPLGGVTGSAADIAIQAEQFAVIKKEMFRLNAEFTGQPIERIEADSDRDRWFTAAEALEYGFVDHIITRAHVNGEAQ
UniProt P9WPC3, whole entry partner: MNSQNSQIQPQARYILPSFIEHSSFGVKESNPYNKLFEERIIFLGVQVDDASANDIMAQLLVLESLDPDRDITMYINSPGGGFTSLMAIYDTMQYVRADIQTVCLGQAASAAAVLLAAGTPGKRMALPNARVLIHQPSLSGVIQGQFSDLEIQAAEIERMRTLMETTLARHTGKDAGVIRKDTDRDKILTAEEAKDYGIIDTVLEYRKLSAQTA
UniProt Q8IDJ8, 1-583: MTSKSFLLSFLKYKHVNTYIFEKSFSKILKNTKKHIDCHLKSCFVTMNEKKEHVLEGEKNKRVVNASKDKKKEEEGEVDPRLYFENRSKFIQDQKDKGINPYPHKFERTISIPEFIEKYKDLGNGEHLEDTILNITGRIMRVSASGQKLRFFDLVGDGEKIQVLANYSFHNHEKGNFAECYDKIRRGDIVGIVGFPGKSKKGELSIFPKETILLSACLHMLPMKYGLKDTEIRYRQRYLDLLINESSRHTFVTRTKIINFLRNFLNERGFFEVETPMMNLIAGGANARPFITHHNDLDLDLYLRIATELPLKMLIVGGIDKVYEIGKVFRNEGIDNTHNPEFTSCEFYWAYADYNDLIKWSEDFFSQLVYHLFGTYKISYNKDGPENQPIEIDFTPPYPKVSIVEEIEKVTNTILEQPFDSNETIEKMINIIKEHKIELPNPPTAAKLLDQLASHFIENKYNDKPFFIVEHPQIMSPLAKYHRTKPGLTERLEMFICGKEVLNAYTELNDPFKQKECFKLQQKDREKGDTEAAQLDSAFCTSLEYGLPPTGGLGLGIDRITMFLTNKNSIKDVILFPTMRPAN

Source: ChEMBL document CHEMBL3988442, “University of Dundee, Small-Polar-MMV Screening Library” (2021).

Leishmania in macrophages: 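Cell assay of Leishmania donovani living inside macrophages; the read-out is not stated. Concentration: 30 µM. Direction is inferred from retests: higher values go with stronger inhibition. Of about 69,000 compounds tested this way, about 1,000 (1.5%) reached 50% or more in at least one test.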
ClpP1P2: 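ClpP1P2, Mycobacterium tuberculosis (UniProt P9WPC5 and UniProt P9WPC3). Protease assay of ClpP1P2, read by the AMC dye that it sets free. Tested at 50 µM. Direction is inferred from only a few compounds that gave an IC50; most scored high, so higher reads as stronger inhibition. Most other retested compounds had strongly negative values. Size under these conditions: about 69,000 compounds, about 10 of them at 50% or above in at least one test.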
Toxoplasma: 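Assay of Toxoplasma gondii numbers, read through their beta-galactosidase reporter with a colour substrate. Compounds at 10 µM. The record gives no direction; the compounds picked for IC50 retests had high values, so higher reads as fewer parasites. Of about 67,000 compounds tested this way, about 260 (0.38%) reached 50% or more in at least one test.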
PfKRS1: 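Enzyme assay of the cytosolic lysyl-tRNA synthetase in 384-well plates, read by luminescence. Target: Lysine-tRNA ligase, Plasmodium falciparum 3D7 (UniProt Q8IDJ8). Concentration: 30 µM. Higher reads as stronger inhibition, judged from the few compounds that gave an IC50. Of about 69,000 compounds tested this way, about 49 (0.071%) reached 50% or more in at least one test.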

Values are the deposited “Percent Effect”, in %.
The record does not define 0% and 100%; most values in the screen are far below 50% and negative numbers occur (in some assays of this library far below -100).
The compounds are a random part of those screened.
Two or more numbers in one place are separate tests of the same structure; such repeats can differ widely.

Result for CC(=O)N1CCN(C(=O)C(C)n2cncn2)CC1 (stereo not shown) was Leishmania in macrophages: 11.08%; ClpP1P2: 5.041%; Toxoplasma: 2.531%; PfKRS1: 2.299%. COCCNC(=O)Cn1cc(OCc2ccc(F)cc2)c(=O)cc1CO gave Leishmania in macrophages: 27.19%; ClpP1P2: -2.638%; Toxoplasma: -7.398%; PfKRS1: 2.107%. Cc1n[nH]c(C)c1NC(=O)CN1CCc2c(nc(C(C)C)n2C)C1 read Leishmania in macrophages: 11.49%; ClpP1P2: -5.482%; Toxoplasma: 7.509%; PfKRS1: 0.7227%. CNc1ccc(CC2CCCN(C(=O)c3c(C)noc3C)C2)nn1 (stereo not shown) read Leishmania in macrophages: 7.084% and 11.91%; ClpP1P2: -7.392%; Toxoplasma: 8.36%; PfKRS1: 4.096%. O=C(O)C(F)(F)F.[H][C@]12CCN(c3ncc(F)cn3)[C@@]1([H])CC[C@H](COCc1cccnc1)O2 read Leishmania in macrophages: -0.5076%; Toxoplasma: -7.475%. O=C(O)C(F)(F)F.O=C(O)C(F)(F)F.[H][C@@]12COC[C@]1(CNC(=O)c1ccsc1)CN(Cc1cccnc1)C2 read Leishmania in macrophages: 14.78%; Toxoplasma: 4.935%.

Result for Cc1cc(C)nc(NC(=O)NCCCSc2nncn2C)n1 was Leishmania in macrophages: 12.59%; ClpP1P2: 4.617%; Toxoplasma: 3.427%; PfKRS1: 7.395%. CCOC(=O)NC(CNC(=O)c1ncccn1)CC(C)C (stereo not shown) read Leishmania in macrophages: 6.572%; ClpP1P2: -10.45%; Toxoplasma: 1.329%; PfKRS1: 8.169%. [H][C@]12CC[C@]([H])(CN(C(=O)c3ccncc3)C1)N(C(=O)N1CCOCC1)C2 read Leishmania in macrophages: 10.15%; Toxoplasma: -18.61%. Result for Cc1nc(COC(=O)c2cccc3c2OCCO3)no1 was Leishmania in macrophages: 59.03%; ClpP1P2: -13.44%; Toxoplasma: -13.24%; PfKRS1: -3.927%. For CC(=O)NCC(=O)N1Cc2ccnn2CC(COCCN(C)C)C1 (stereo not shown) the result was Leishmania in macrophages: 1.842%; ClpP1P2: -9.025%; Toxoplasma: 2.479%; PfKRS1: 6.146%. CCN1CCN(C2CCN(Cc3nc(C4CC4)no3)CC2)C1=O read Leishmania in macrophages: 0.4254%; ClpP1P2: -9.652%; Toxoplasma: -7.081%; PfKRS1: -1.158%.

With COc1cccc([C@@H]2CCN(Cc3cccc(C)n3)C[C@H]2O)c1 the screen gave Leishmania in macrophages: -0.2636%; ClpP1P2: -1.116%; Toxoplasma: -17.26%; PfKRS1: 3.93%. Cc1ccccc1CN(Cc1ccccn1)C(=O)CN(C)C(C)C gave Leishmania in macrophages: 23.26%; ClpP1P2: 8.997%; Toxoplasma: 4.446%; PfKRS1: 1.998%. Result for CC(=O)N[C@@H]1CN(Cc2ccccc2-n2nc(C)cc2C)C[C@H]1C(C)C was Leishmania in macrophages: 12.81%; ClpP1P2: -0.7996%; Toxoplasma: -3.018%; PfKRS1: 5.351%. For CCOC(=O)[C@H]1[C@@H](O)C(=O)N(C)C12CCN(C(=O)CC(C)(C)C)CC2 the result was Leishmania in macrophages: 6.195%; ClpP1P2: -0.1717%; Toxoplasma: -4.591%; PfKRS1: 1.512%. Result for CC(C)Nc1nc(O)cc(C2CC(=O)N(Cc3ccccn3)C2)n1.Cl (stereo not shown) was Leishmania in macrophages: -6.178%; Toxoplasma: 3.798%. Result for CCN(C(=O)c1ccc2nnc(C3CCN(C)C3)n2c1)C(C)C (stereo not shown) was ClpP1P2: -5.867%; PfKRS1: 2.837%.

Result for CC(O)c1cccc(N2CCC3(CC2)Nc2ccccc2NC3=O)n1 (stereo not shown) was Leishmania in macrophages: 9.433%; ClpP1P2: -7.423%; Toxoplasma: -8.732%; PfKRS1: 0.3326%. Result for [H][C@]12CCC[C@@]1(CO)CN(C(=O)c1cc(C)nc3ccc(CC)cc13)C2 was Leishmania in macrophages: 17.03%; Toxoplasma: 0.7379%. Cc1cccc2c1nc1n2[C@@H](CNC(=O)Cc2ccccc2)COC1 read Leishmania in macrophages: 14.87%; ClpP1P2: -14.58%; Toxoplasma: -11.99%; PfKRS1: 3.96%. For Cn1nc(COc2cccnc2)c2c1CCN(c1cnccn1)C2 the result was ClpP1P2: -4.96%; PfKRS1: 8.092%. For COCCN1C(=O)CC[C@@H]2[C@H]1CCN2Cc1cccc(C#N)c1 the result was ClpP1P2: 3.462%; PfKRS1: -3.112%. With Cc1ccc2nc(-c3cnc(N)nc3)cc(C(=O)N(C)C)c2c1 the screen gave Leishmania in macrophages: 25.79%; ClpP1P2: -9.438%; Toxoplasma: -8.732%; PfKRS1: 1.947%.

CN(C)c1ncnc2c1CCN(C(=O)CN1CCCCC1)C2 gave Leishmania in macrophages: 22.7%; ClpP1P2: -10.48%; PfKRS1: 6.639%. Result for O=S(=O)(c1c(N2CCCC2)ccc2nonc12)N1CCCC1 was Leishmania in macrophages: 5.515%; ClpP1P2: -2.624%; Toxoplasma: 1.752%; PfKRS1: 0.5975%. For COc1cccc(C(=O)N2CCC(Nc3ccc(C)nn3)CC2)c1 the result was Leishmania in macrophages: 13.13%; ClpP1P2: -2.584%; Toxoplasma: -18.07%; PfKRS1: -0.06054%. O=C(c1ccc2c(c1)OCO2)N1CCN2C(=O)NC[C@H]2C1 gave ClpP1P2: -2.853%; PfKRS1: 3.07%. Result for Cc1nc(N2CCN(C)CC2)ncc1C(=O)N1C[C@@H](C)[C@@](C)(O)C1 was Leishmania in macrophages: -14.89%; ClpP1P2: -6.099%; Toxoplasma: 2.754%; PfKRS1: -2.379%. For O=C(CN1C(=O)c2ccccc2CS1(=O)=O)c1ccccc1 the result was Leishmania in macrophages: 2.506%; ClpP1P2: -1.077%; Toxoplasma: -3.287%; PfKRS1: 2.758%.

Some entries from above, unchanged:

{"structure": "Cc1cccc2c1nc1n2[C@@H](CNC(=O)Cc2ccccc2)COC1", "Leishmania in macrophages": 14.87, "ClpP1P2": -14.58, "Toxoplasma": -11.99, "PfKRS1": 3.96}
{"structure": "O=C(O)C(F)(F)F.O=C(O)C(F)(F)F.[H][C@@]12COC[C@]1(CNC(=O)c1ccsc1)CN(Cc1cccnc1)C2", "Leishmania in macrophages": 14.78, "Toxoplasma": 4.935}
{"structure": "COCCN1C(=O)CC[C@@H]2[C@H]1CCN2Cc1cccc(C#N)c1", "ClpP1P2": 3.462, "PfKRS1": -3.112}